# Reference: the supplement of paper PMC8728848
# The other results are listed elsewhere or left out.
# Columns and labels:
# Assay in all cases: glycan array binding signal (z-score within array); higher = stronger binding
# Conditions in all cases: glycan notation: IUPAC condensed, linker removed
# [1] = molecular target: Gal(b1-2)Gal
# In short: (§1)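 Negative Z-scores can be read as non-binding. The Z-score is calculated within each array and then averaged across arrays of one protein sequence at different concentrations or buffers and across linkers. Arrays, 3228 in all, were curated from the Consortium for Functional Glycomics database and kept only where the protein sequence was available.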
# [2] = molecular target: Gal(b1-3)Gal
# In short: as §1
# [3] = molecular target: Gal(b1-3)Gal(b1-4)GlcNAc
# In short: as §1
# [4] = molecular target: Gal(b1-3)GalNAc
# In short: as §1
# [5] = molecular target: Gal(b1-3)GalNAc(a1-3)[Fuc(a1-2)]Gal(b1-4)Glc
# In short: as §1
# [6] = molecular target: Gal(b1-3)GalNAc(a1-3)[Fuc(a1-2)]Gal(b1-4)GlcNAc
# In short: as §1
# [7] = molecular target: Gal(b1-3)GalNAc(b1-3)Gal
# In short: as §1
# [8] = molecular target: Gal(b1-3)GalNAc(b1-3)Gal(a1-4)Gal(b1-4)Glc
# In short: as §1
# [9] = molecular target: Gal(b1-3)GalNAc(b1-4)Gal(b1-4)Glc
# In short: as §1
# [10] = molecular target: Gal(b1-3)GalNAc(b1-4)[Neu5Ac(a2-3)]Gal(b1-4)Glc
# In short: as §1
# [11] = molecular target: Gal(b1-3)GlcNAc
# In short: as §1
# [12] = molecular target: Gal(b1-3)GlcNAc(a1-3)Gal(b1-4)GlcNAc
# In short: as §1
# [13] = molecular target: Gal(b1-3)GlcNAc(a1-6)Gal(b1-4)GlcNAc
# In short: as §1
# [14] = molecular target: Gal(b1-3)GlcNAc(b1-2)Man
# In short: as §1
# [15] = molecular target: Gal(b1-3)GlcNAc(b1-2)Man(a1-3)[Gal(b1-3)GlcNAc(b1-2)Man(a1-6)]Man(b1-4)GlcNAc(b1-4)GlcNAc
# In short: as §1
# [16] = molecular target: Gal(b1-3)GlcNAc(b1-2)Man(a1-3)[Gal(b1-3)GlcNAc(b1-2)Man(a1-6)]Man(b1-4)GlcNAc(b1-4)[Fuc(a1-6)]GlcNAc
# In short: as §1
# [17] = molecular target: Gal(b1-3)GlcNAc(b1-2)Man(a1-3)[GlcNAc(b1-4)][Gal(b1-3)GlcNAc(b1-2)Man(a1-6)]Man(b1-4)GlcNAc(b1-4)GlcNAc
# In short: as §1
# [18] = molecular target: Gal(b1-3)GlcNAc(b1-2)[Gal(b1-3)GlcNAc(b1-6)]Man(a1-6)[Gal(b1-3)GlcNAc(b1-2)Man(a1-3)]Man(b1-4)GlcNAc(b1-4)GlcNAc
# In short: as §1
# [19] = molecular target: Gal(b1-3)GlcNAc(b1-3)Gal(b1-3)GlcNAc
# In short: as §1
# [20] = molecular target: Gal(b1-3)GlcNAc(b1-3)Gal(b1-4)Glc
# In short: as §1
# [21] = molecular target: Gal(b1-3)GlcNAc(b1-3)Gal(b1-4)GlcNAc
# In short: as §1
# [22] = molecular target: Gal(b1-3)GlcNAc(b1-3)Gal(b1-4)GlcNAc(b1-2)Man(a1-3)[Gal(b1-3)GlcNAc(b1-3)Gal(b1-4)GlcNAc(b1-2)Man(a1-6)]Man(b1-4)GlcNAc(b1-4)GlcNAc
# In short: as §1
# [23] = molecular target: Gal(b1-3)GlcNAc(b1-3)Gal(b1-4)GlcNAc(b1-2)[Gal(b1-3)GlcNAc(b1-3)Gal(b1-4)GlcNAc(b1-6)]Man(a1-6)[Gal(b1-3)GlcNAc(b1-3)Gal(b1-4)GlcNAc(b1-2)Man(a1-3)]Man(b1-4)GlcNAc(b1-4)[Fuc(a1-6)]GlcNAc
# In short: as §1
# [24] = molecular target: Gal(b1-3)GlcNAc(b1-3)Gal(b1-4)GlcNAc(b1-3)Gal(b1-4)GlcNAc(b1-2)[Gal(b1-3)GlcNAc(b1-3)Gal(b1-4)GlcNAc(b1-3)Gal(b1-4)GlcNAc(b1-6)]Man(a1-6)[Gal(b1-3)GlcNAc(b1-3)Gal(b1-4)GlcNAc(b1-3)Gal(b1-4)GlcNAc(b1-2)Man(a1-3)]Man(b1-4)GlcNAc(b1-4)[Fuc(a1-6)]GlcNAc
# In short: as §1
# [25] = molecular target: Gal(b1-3)GlcNAc(b1-3)Gal(b1-4)GlcNAc(b1-6)[Gal(b1-3)GlcNAc(b1-3)]Gal(b1-4)Glc
# In short: as §1
# [26] = molecular target: Gal(b1-3)GlcNAc(b1-3)Gal(b1-4)[Fuc(a1-3)]GlcNAc
# In short: as §1
# [27] = molecular target: Gal(b1-3)GlcNAc(b1-3)Gal(b1-4)[Fuc(a1-3)]GlcNAc(b1-6)[Gal(b1-3)GlcNAc(b1-3)]Gal(b1-4)Glc
# In short: as §1
# [28] = molecular target: Gal(b1-3)GlcNAc(b1-3)GalNAc
# In short: as §1
# [29] = molecular target: Gal(b1-3)GlcNAc(b1-6)Gal(b1-4)GlcNAc
# In short: as §1
# [30] = molecular target: Gal(b1-3)GlcNAc(b1-6)GalNAc
# In short: as §1
# [31] = molecular target: Gal(b1-3)GlcNAc(b1-6)[Gal(b1-3)]GalNAc
# In short: as §1
# [32] = molecular target: Gal(b1-3)GlcNAc6S
# In short: as §1
# [33] = molecular target: Gal(b1-3)[Fuc(a1-4)]GlcNAc
# In short: as §1
# [34] = molecular target: Gal(b1-3)[Fuc(a1-4)]GlcNAc(b1-2)Man
# In short: as §1
# [35] = molecular target: Gal(b1-3)[Fuc(a1-4)]GlcNAc(b1-2)Man(a1-3)[Gal(b1-3)[Fuc(a1-4)]GlcNAc(b1-2)Man(a1-6)]Man(b1-4)GlcNAc(b1-4)[Fuc(a1-6)]GlcNAc
# In short: as §1
# [36] = molecular target: Gal(b1-3)[Fuc(a1-4)]GlcNAc(b1-3)Gal(b1-3)[Fuc(a1-4)]GlcNAc
# In short: as §1
# [37] = molecular target: Gal(b1-3)[Fuc(a1-4)]GlcNAc(b1-3)Gal(b1-4)[Fuc(a1-3)]GlcNAc
# In short: as §1
# [38] = molecular target: Gal(b1-3)[Fuc(a1-4)]GlcNAc(b1-6)GalNAc
# In short: as §1
# [39] = molecular target: Gal(b1-3)[GlcNAc(b1-6)]GalNAc
# In short: as §1
# [40] = molecular target: Gal(b1-3)[Neu5Ac(a2-6)]GalNAc
# In short: as §1
# [41] = molecular target: Gal(b1-3)[Neu5Ac(a2-6)]GlcNAc(b1-4)Gal(b1-4)Glc
# In short: as §1
# [42] = molecular target: Gal(b1-3)[Neu5Ac(b2-6)]GalNAc
# In short: as §1
# [43] = molecular target: Gal(b1-4)Gal
# In short: as §1
# [44] = molecular target: Gal(b1-4)GalNAc(a1-3)[Fuc(a1-2)]Gal(b1-4)GlcNAc
# In short: as §1
# [45] = molecular target: Gal(b1-4)GalNAc(b1-3)[Fuc(a1-2)]Gal(b1-4)GlcNAc
# In short: as §1
binder,measurement,setting,value
Aap arpt (Staphylococcus epidermidis) (protein) NNEAPQMSSTLQAEEGSNAEAPQSEPTKAEEGGNAEAAQSEPTKAEEGGNAEAPQSEPTKAEEGGNAEAAQSEPTKTEEGSNVKAAQSEPTKAEEGSNAEAPQSEPTKTEEGSNAKAAQSEPTKAEEGGNAEAAQSEPTKTEEGSNAEAPQSEPTKAEEGGYAEAPQSEPTKTEEGGNAEAPNVPTIKA,glycan array binding signal (z-score),[1],-0.524
same,glycan array binding signal (z-score),[2],0.993
same,glycan array binding signal (z-score),[3],0.621
same,glycan array binding signal (z-score),[4],-0.104
same,glycan array binding signal (z-score),[5],-0.545
same,glycan array binding signal (z-score),[6],-0.871
same,glycan array binding signal (z-score),[7],-1.35
same,glycan array binding signal (z-score),[8],0.911
same,glycan array binding signal (z-score),[9],0.305
same,glycan array binding signal (z-score),[10],-0.13
same,glycan array binding signal (z-score),[11],0.586
same,glycan array binding signal (z-score),[12],-0.865
same,glycan array binding signal (z-score),[13],0.977
same,glycan array binding signal (z-score),[14],0.25
same,glycan array binding signal (z-score),[15],0.414
same,glycan array binding signal (z-score),[16],0.362
same,glycan array binding signal (z-score),[17],-0.635
same,glycan array binding signal (z-score),[18],-0.435
same,glycan array binding signal (z-score),[19],-0.305
same,glycan array binding signal (z-score),[20],0.135
same,glycan array binding signal (z-score),[21],-1.2
same,glycan array binding signal (z-score),[22],1.85
same,glycan array binding signal (z-score),[23],1.02
same,glycan array binding signal (z-score),[24],-0.32
same,glycan array binding signal (z-score),[25],0.709
same,glycan array binding signal (z-score),[26],0.937
same,glycan array binding signal (z-score),[27],-0.751
same,glycan array binding signal (z-score),[28],-0.506
same,glycan array binding signal (z-score),[29],-0.699
same,glycan array binding signal (z-score),[30],0.207
same,glycan array binding signal (z-score),[31],0.662
same,glycan array binding signal (z-score),[32],-0.337
same,glycan array binding signal (z-score),[33],-0.546
same,glycan array binding signal (z-score),[34],1.56
same,glycan array binding signal (z-score),[35],2.23
same,glycan array binding signal (z-score),[36],0.08
same,glycan array binding signal (z-score),[37],-1.72
same,glycan array binding signal (z-score),[38],-0.35
same,glycan array binding signal (z-score),[39],-0.81
same,glycan array binding signal (z-score),[40],-0.22
same,glycan array binding signal (z-score),[41],-1.06
same,glycan array binding signal (z-score),[42],-0.606
same,glycan array binding signal (z-score),[43],-0.796
same,glycan array binding signal (z-score),[44],-1.14
same,glycan array binding signal (z-score),[45],-2.07

# 2 entries from above, set out differently.
binder | measurement | setting | value
Aap arpt (Staphylococcus epidermidis) (protein) NNEAPQMSSTLQAEEGSNAEAPQSEPTKAEEGGNAEAAQSEPTKAEEGGNAEAPQSEPTKAEEGGNAEAAQSEPTKTEEGSNVKAAQSEPTKAEEGSNAEAPQSEPTKTEEGSNAKAAQSEPTKAEEGGNAEAAQSEPTKTEEGSNAEAPQSEPTKAEEGGYAEAPQSEPTKTEEGGNAEAPNVPTIKA | glycan array binding signal (z-score) | [28] | -0.506
same | glycan array binding signal (z-score) | [29] | -0.699
